# ± gives the standard deviation of the averaged measurements. The list shows a part of the results, in another mix than the full data.
# By UniProt entry, the sequences of proteins in these tests, tags left out. Where a name states a change or a piece, a line headed by the entry shows the natural chain unless it says otherwise.
# UniProt O76095: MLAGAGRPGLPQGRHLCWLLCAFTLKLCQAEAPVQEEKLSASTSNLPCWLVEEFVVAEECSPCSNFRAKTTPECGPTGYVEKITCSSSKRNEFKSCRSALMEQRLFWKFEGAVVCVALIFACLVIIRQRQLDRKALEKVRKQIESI
# UniProt O75368: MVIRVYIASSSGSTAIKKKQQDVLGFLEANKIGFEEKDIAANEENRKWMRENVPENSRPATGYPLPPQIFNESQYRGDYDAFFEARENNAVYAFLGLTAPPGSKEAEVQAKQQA
# UniProt O95295: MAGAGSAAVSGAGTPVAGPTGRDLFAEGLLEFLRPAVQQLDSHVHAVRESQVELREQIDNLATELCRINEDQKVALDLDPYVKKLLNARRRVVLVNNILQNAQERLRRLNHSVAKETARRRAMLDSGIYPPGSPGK
# UniProt O75995: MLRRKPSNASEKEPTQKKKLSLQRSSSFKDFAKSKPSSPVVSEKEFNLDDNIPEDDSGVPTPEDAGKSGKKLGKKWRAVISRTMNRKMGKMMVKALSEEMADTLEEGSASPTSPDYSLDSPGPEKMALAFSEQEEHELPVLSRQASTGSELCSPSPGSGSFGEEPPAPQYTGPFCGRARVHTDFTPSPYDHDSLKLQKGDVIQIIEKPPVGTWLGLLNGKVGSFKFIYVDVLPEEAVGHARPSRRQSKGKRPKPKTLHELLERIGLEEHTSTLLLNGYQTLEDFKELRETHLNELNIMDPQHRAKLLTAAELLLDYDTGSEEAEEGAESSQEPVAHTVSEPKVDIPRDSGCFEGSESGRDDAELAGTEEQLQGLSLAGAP
# UniProt O94855: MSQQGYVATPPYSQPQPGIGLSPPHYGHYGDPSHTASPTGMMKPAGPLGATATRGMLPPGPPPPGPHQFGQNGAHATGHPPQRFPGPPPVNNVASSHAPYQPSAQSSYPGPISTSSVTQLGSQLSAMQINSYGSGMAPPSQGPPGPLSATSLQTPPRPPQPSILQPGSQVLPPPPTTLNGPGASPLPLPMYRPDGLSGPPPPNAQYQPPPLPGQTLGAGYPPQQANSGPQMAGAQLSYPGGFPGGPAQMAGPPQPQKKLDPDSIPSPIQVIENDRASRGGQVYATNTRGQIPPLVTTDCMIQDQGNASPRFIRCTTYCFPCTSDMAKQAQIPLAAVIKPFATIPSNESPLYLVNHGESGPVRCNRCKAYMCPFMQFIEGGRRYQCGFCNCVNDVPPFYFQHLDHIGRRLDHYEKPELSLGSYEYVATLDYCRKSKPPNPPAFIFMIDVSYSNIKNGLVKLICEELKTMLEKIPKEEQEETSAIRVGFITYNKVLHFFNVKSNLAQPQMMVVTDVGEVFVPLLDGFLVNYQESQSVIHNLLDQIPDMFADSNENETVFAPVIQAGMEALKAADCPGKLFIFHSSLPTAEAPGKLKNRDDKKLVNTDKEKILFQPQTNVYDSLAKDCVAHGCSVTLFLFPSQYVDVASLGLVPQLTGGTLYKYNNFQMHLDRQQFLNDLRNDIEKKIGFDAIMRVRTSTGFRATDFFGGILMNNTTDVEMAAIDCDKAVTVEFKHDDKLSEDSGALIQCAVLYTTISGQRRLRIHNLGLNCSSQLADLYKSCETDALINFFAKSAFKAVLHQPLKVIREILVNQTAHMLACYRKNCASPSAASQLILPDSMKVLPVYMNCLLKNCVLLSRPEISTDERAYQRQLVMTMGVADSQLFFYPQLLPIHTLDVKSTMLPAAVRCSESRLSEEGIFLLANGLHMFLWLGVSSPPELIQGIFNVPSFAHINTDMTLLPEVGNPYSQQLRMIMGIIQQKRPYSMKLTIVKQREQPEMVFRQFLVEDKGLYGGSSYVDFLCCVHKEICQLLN
# UniProt O75326: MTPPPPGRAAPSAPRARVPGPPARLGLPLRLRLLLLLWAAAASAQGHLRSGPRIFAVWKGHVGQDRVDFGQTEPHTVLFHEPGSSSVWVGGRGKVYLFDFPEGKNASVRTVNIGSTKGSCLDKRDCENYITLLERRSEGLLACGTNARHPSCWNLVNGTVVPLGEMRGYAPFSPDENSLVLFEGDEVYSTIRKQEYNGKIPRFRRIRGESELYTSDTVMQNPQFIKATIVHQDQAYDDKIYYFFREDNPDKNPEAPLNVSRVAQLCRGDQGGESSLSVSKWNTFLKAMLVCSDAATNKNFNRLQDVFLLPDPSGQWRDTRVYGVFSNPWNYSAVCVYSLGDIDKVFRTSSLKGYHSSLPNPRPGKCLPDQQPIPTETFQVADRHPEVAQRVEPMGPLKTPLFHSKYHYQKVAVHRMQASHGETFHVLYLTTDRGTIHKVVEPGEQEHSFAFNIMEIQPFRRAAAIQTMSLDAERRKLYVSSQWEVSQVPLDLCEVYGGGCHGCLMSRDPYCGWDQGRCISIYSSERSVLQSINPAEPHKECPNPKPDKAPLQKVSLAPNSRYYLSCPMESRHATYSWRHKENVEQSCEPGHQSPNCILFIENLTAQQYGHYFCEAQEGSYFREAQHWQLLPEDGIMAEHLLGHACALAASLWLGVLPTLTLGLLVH
# UniProt O76080: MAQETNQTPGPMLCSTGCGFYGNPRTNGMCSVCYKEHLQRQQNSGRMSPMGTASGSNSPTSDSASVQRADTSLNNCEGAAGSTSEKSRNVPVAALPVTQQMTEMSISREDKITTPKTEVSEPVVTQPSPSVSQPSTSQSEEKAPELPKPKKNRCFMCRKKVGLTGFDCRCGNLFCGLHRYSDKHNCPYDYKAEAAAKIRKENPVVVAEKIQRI
# UniProt O95365: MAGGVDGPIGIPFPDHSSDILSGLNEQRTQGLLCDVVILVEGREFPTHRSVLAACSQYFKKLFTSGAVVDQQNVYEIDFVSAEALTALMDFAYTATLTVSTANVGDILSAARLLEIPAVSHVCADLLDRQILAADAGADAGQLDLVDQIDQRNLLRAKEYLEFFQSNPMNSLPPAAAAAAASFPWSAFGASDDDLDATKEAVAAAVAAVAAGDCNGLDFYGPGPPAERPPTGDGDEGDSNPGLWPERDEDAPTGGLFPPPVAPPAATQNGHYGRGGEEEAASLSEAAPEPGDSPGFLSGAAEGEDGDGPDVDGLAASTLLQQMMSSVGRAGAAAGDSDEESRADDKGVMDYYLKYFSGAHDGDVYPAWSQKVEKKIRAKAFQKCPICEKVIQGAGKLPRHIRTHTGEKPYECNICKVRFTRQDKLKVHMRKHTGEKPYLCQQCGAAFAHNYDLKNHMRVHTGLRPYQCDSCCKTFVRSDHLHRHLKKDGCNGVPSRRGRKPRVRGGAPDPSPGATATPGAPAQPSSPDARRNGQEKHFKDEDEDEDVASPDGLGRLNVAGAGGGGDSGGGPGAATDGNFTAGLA
# UniProt O95429: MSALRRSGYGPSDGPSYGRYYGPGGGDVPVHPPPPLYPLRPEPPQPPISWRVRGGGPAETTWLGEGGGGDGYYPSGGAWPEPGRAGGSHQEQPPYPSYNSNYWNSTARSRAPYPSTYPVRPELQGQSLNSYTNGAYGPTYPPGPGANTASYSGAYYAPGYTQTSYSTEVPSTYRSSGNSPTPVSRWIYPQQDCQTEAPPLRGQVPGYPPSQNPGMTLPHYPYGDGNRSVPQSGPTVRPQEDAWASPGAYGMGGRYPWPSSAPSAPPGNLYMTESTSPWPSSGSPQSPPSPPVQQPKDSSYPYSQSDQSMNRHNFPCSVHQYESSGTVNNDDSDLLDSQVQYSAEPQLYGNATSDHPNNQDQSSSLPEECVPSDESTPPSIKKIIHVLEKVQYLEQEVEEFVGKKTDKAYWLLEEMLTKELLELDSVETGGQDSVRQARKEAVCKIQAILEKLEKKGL
# UniProt O75063: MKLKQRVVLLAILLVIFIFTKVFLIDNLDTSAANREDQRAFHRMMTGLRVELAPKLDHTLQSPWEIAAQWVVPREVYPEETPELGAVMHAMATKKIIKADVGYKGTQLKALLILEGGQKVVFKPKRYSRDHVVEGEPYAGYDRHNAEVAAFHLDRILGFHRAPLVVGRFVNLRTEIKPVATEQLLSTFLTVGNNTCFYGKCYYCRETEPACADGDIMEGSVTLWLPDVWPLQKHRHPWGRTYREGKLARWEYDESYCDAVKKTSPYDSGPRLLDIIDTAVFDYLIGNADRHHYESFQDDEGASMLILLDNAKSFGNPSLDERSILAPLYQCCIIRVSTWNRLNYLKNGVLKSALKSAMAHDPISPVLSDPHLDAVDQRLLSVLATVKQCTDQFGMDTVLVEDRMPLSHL
# UniProt O60488: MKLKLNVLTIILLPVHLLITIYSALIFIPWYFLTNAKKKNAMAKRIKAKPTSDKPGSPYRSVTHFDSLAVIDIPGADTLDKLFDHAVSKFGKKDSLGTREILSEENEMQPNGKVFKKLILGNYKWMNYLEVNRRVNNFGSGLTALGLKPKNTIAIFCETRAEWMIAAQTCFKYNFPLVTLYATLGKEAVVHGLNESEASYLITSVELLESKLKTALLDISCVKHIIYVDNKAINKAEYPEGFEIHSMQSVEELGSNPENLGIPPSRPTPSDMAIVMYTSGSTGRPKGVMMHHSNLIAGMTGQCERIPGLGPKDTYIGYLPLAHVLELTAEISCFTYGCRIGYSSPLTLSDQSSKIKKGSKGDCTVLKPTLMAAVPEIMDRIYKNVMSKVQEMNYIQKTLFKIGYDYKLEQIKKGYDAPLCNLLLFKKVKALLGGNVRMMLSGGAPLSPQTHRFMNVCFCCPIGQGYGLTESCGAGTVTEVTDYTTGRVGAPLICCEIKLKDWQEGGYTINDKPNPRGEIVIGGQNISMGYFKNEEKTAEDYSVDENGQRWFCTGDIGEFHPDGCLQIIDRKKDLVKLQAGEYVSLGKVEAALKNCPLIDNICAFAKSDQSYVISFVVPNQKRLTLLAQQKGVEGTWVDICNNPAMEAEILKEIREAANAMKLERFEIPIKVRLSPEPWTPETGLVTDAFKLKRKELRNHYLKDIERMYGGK
# UniProt O75380, whole entry: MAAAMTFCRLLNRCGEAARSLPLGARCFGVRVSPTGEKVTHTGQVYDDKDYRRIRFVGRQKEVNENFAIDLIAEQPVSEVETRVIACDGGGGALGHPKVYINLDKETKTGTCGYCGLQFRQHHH
# UniProt O60669: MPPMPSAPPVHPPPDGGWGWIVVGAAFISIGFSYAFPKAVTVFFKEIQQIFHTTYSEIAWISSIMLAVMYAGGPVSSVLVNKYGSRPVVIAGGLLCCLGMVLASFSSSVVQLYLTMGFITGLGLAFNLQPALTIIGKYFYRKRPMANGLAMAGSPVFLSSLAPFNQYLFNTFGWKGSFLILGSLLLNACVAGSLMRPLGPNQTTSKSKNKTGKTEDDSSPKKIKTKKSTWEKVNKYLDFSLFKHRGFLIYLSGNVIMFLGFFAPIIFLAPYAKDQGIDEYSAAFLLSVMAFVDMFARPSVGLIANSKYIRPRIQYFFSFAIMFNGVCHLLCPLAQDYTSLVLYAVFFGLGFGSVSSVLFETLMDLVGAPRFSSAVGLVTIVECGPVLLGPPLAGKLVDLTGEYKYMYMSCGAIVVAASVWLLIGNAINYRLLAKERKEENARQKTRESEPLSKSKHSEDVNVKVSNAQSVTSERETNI
# UniProt O60927: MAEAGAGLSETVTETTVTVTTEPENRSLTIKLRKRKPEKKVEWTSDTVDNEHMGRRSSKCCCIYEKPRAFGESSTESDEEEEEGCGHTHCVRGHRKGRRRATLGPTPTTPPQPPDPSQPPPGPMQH
# UniProt O75396: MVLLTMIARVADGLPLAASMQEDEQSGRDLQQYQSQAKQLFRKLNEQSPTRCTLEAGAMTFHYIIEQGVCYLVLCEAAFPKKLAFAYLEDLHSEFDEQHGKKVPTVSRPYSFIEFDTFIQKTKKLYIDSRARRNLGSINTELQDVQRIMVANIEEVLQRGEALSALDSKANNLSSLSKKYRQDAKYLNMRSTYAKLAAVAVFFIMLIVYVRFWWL
# UniProt O94874: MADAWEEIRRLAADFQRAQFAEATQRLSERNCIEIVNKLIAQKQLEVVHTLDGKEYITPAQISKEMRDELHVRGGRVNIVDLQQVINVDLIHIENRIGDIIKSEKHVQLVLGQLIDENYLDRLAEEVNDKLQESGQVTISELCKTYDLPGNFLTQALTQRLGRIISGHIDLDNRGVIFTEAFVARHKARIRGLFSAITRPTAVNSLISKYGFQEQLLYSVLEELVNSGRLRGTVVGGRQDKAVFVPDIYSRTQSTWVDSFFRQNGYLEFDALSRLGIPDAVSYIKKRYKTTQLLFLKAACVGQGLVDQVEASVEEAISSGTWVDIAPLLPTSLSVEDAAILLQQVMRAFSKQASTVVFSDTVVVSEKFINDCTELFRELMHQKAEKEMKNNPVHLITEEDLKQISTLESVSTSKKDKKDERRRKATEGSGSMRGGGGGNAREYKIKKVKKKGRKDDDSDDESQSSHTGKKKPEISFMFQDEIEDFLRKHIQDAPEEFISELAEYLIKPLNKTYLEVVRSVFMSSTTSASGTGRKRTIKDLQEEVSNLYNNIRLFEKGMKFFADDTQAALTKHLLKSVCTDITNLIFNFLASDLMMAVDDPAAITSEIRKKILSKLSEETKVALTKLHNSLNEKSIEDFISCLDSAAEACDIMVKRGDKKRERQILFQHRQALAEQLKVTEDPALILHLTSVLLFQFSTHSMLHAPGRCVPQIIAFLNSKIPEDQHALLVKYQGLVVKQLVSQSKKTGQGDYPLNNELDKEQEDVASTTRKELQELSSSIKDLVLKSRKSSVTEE
# Compound: Nc1ncnc2c1ncn2[C@@H]1O[C@H](COP(=O)(O)OP(=O)(O)NP(=O)(O)O)[C@@H](O)[C@H]1O [adenylyl imidodiphosphate]
# Assay: NP40-soluble protein abundance relative to vehicle (solubility fold change) (ratio); higher = more soluble protein in presence of AMP-PNP
# Method in brief: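 Eight concentrations, 0.1 to 10 mM, were tested on Jurkat crude lysate for 10 min at room temperature and then 3 min at 37 °C, in three independent experiments. The lysate was solubilised with 0.8% NP40 and benzonase, ultracentrifuged, and the supernatant TMT-labelled for LC-MS/MS. Each value is the fold change against the detergent-processed vehicle in its own replicate, from vsn-normalised intensities.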
Target,NP40-soluble protein abundance (concentration: 1mM),NP40-soluble protein abundance (concentration: 2mM),NP40-soluble protein abundance (concentration: 4mM),NP40-soluble protein abundance (concentration: 6mM),NP40-soluble protein abundance (concentration: 8mM),NP40-soluble protein abundance (concentration: 10mM)
STAM2 (UniProt O75886),1.01 ± 0.032,1.02 ± 0.064,0.989 ± 0.033,1 ± 0.015,0.967 ± 0.021,0.995 ± 0.04
SH3BP5 (UniProt O60239),0.968 ± 0.021,1.04 ± 0.067,0.906 ± 0.052,0.964 ± 0.032,0.934 ± 0.042,0.961 ± 0.035
UniProt O76095 and related entries,0.988 ± 0.039,0.981 ± 0.037,0.978 ± 0.038,0.989 ± 0.018,0.976 ± 0.011,0.95 ± 0.025
SURF6 (UniProt O75683),1.05 ± 0.056,1.12 ± 0.092,1.1 ± 0.057,1.17 ± 0.095,1.14 ± 0.12,1.22 ± 0.088
SH3BGRL (UniProt O75368),0.939 ± 0.027,0.966 ± 0.028,0.888 ± 0.013,0.937 ± 0.031,0.907 ± 0.015,0.897 ± 0.033
UniProt O75179 and related entries,1.037 ± 0.0076,1.05 ± 0.05,1.069 ± 0.0067,1.07 ± 0.04,1.08 ± 0.022,1.13 ± 0.018
SNAPIN (UniProt O95295),0.972 ± 0.015,0.97339 ± 0.0008,0.96 ± 0.032,0.97 ± 0.047,0.97 ± 0.013,0.9615 ± 0.0095
ZMPSTE24 (UniProt O75844),0.939 ± 0.087,0.891 ± 0.024,0.922 ± 0.076,0.946 ± 0.12,0.977 ± 0.096,0.932 ± 0.072
SASH3 (UniProt O75995),1.02 ± 0.021,1.05 ± 0.052,1.01 ± 0.025,0.979 ± 0.013,0.963 ± 0.033,0.961 ± 0.026
UniProt O94855 and related entries,0.963 ± 0.057,0.912 ± 0.12,0.955 ± 0.066,0.934 ± 0.043,0.943 ± 0.03,0.924 ± 0.078
UniProt O60830 and related entries,1.03 ± 0.075,1.02 ± 0.025,1.04 ± 0.078,1.02 ± 0.069,1.02 ± 0.079,1.02 ± 0.07
UniProt O75326 and related entries,1 ± 0.015,0.994 ± 0.042,0.976 ± 0.017,0.989 ± 0.031,1 ± 0.021,0.985 ± 0.025
ZFAND5 (UniProt O76080),0.925 ± 0.011,0.988 ± 0.099,0.935 ± 0.026,0.916 ± 0.03,0.904 ± 0.018,0.944 ± 0.02
TIPRL (UniProt O75663),1.05 ± 0.065,1.03 ± 0.036,0.986 ± 0.013,0.985 ± 0.045,0.972 ± 0.062,1 ± 0.064
UniProt O95613 and related entries,0.956 ± 0.042,1 ± 0.048,1.13 ± 0.044,1.02 ± 0.05,1.05 ± 0.041,0.981 ± 0.052
UniProt O94964 and related entries,0.981 ± 0.044,0.977 ± 0.027,0.971 ± 0.039,0.953 ± 0.03,0.915 ± 0.021,0.934 ± 0.041
ZBTB7A (UniProt O95365),1.01 ± 0.064,1.04 ± 0.079,1.07 ± 0.056,1.01 ± 0.038,1.05 ± 0.066,1.08 ± 0.027
UniProt O95429 and related entries,0.9743 ± 0.0062,1.007 ± 0.0085,0.9778 ± 0.0036,1.002 ± 0.0031,0.989 ± 0.014,0.9849 ± 0.0067
FAM20B (UniProt O75063),0.973 ± 0.02,0.993 ± 0.022,0.978 ± 0.024,0.99 ± 0.024,0.963 ± 0.016,1 ± 0.042
UniProt O60488 and related entries,1.06 ± 0.04,0.989 ± 0.12,1.05 ± 0.078,1.02 ± 0.041,1.03 ± 0.033,1.02 ± 0.067
UniProt O60504-2|O60504,1.03 ± 0.013,0.999 ± 0.018,1.04 ± 0.018,1.03 ± 0.029,1.02 ± 0.029,1.02 ± 0.025
NDUFS6 (UniProt O75380),0.971 ± 0.037,1.03 ± 0.02,0.913 ± 0.017,0.954 ± 0.06,0.899 ± 0.052,0.946 ± 0.061
PSMG1 (UniProt O95456),0.979 ± 0.017,0.926 ± 0.07,0.984 ± 0.052,1.02 ± 0.12,1.02 ± 0.081,1 ± 0.073
SLC16A7 (UniProt O60669),1.03 ± 0.029,1.05 ± 0.056,0.99 ± 0.07,1.015 ± 0.0051,1 ± 0.046,1.02 ± 0.03
PPP1R11 (UniProt O60927),1.03 ± 0.049,1.07 ± 0.07,1.05 ± 0.069,1.02 ± 0.034,1.02 ± 0.068,1.03 ± 0.053
PPM1B (UniProt O75688),0.991 ± 0.032,0.991 ± 0.016,0.982 ± 0.038,0.966 ± 0.0059,0.957 ± 0.032,0.9644 ± 0.0034
UniProt O75822 and related entries,0.876 ± 0.042,0.941 ± 0.07,0.858 ± 0.031,0.949 ± 0.026,0.957 ± 0.029,0.99 ± 0.015
SS18L1 (UniProt O75177),1.02 ± 0.048,1.02 ± 0.029,0.967 ± 0.032,1.01 ± 0.018,0.996 ± 0.033,1.03 ± 0.041
UniProt O75396,0.983 ± 0.04,1.01 ± 0.07,0.962 ± 0.051,0.97 ± 0.038,0.953 ± 0.021,0.947 ± 0.048
UniProt O94874,1.02 ± 0.014,1.02 ± 0.022,1.07 ± 0.028,1.09 ± 0.025,1.08 ± 0.015,1.1 ± 0.011

# Two successive entries from above:
Target,NP40-soluble protein abundance (concentration: 1mM),NP40-soluble protein abundance (concentration: 2mM),NP40-soluble protein abundance (concentration: 4mM),NP40-soluble protein abundance (concentration: 6mM),NP40-soluble protein abundance (concentration: 8mM),NP40-soluble protein abundance (concentration: 10mM)
TIPRL (UniProt O75663),1.05 ± 0.065,1.03 ± 0.036,0.986 ± 0.013,0.985 ± 0.045,0.972 ± 0.062,1 ± 0.064
UniProt O95613 and related entries,0.956 ± 0.042,1 ± 0.048,1.13 ± 0.044,1.02 ± 0.05,1.05 ± 0.041,0.981 ± 0.052

# From the supplement of paper PMC6411743
